End groups of sequences in plain letters are not given here.

A short description of data set [1]: general procedure: Fmoc solid-phase peptide synthesis; 2-chlorotrityl chloride resin (loading 1.60 mmol/g); PyBOP, DIPEA (printed for the tetrameric chelator). The settings on record: TFA salt; for final HPLC purity: 220 nm.
Data set [2] is described as follows: general procedure: Fmoc solid-phase peptide synthesis; 2-chlorotrityl chloride resin; PyBOP, DIPEA (printed for the tetrameric chelator). The settings on record: whole synthesis, scale 0.8 mmol, TFA salt.

Consider C-GAESAPLVSSVQSPD, for which the “final HPLC purity” value in data set [1] (whole synthesis, scale of the general procedure 0.8 mmol) is on record as over 98%.
For CVVGSPSAQDEASPLS, the isolated yield in data set [2] (based on the estimated loading of the resin) is recorded as 50%. For the same substance, the isolated mass in data set [2] was 0.62 g. Further, the “final HPLC purity” value in data set [1] (whole synthesis, scale of the general procedure 0.8 mmol, run 1) is given as over 98%; in data set [1] (whole synthesis, scale of the general procedure 0.8 mmol, run 2), over 95%.
With Gd4-TESMA, in data set [1] (conjugation step), the “final HPLC purity” value was over 95% and the conjugation yield is recorded as 43%. Besides, the isolated yield result in data set [1] (whole synthesis, overall, scale of the general procedure 0.8 mmol) is listed as “about 60%”.

The record behind these values is publication PMC8558862 (Journal of Medicinal Chemistry, 2021).
